No constants are given. Whether binding was seen depends on the method and setting. Binding seen in cells or lysates may run through a third protein. Some entries that bind do so weakly or less than the wild type.
Tests used:
Assay in all cases: pull-down; GST or GST fusion proteins bound to glutathione-Sepharose beads, incubated 1 h with endothelial cell lysate (1% Triton X-100 in TBS, protease and phosphatase inhibitors), washed twice in TBS; western blot for CD148; only the target purified
[1] = molecular target: S2ED: extracellular core protein of murine syndecan-2 (E19-F141) fused at the N-terminus to GST (murine) (UniProt P43407)
[2] = molecular target: S2EDΔL73-G123 (GAG attachment domain and C-terminal adhesion regulatory domain only), GST fusion (murine) (UniProt P43407)
[3] = molecular target: S2EDΔP124-F141 (S2ED lacking the adhesion regulatory domain), GST fusion (murine) (UniProt P43407)

The chains behind the UniProt entries cited, without tags or fusion partners. Where a name states a change or a piece, a line headed by the entry shows the natural chain unless it says otherwise. A line that says so, or that is headed by a name, gives the form on record, which may keep a tag or linker. Residues count along the entry.
UniProt P43407: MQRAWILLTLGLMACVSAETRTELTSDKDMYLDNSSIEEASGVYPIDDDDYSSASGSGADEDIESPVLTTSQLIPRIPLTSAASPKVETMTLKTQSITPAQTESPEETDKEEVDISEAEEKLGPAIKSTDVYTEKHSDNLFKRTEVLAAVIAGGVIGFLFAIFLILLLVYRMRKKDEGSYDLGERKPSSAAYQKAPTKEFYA
S2ED: extracellular core protein of murine syndecan-2 (E19-F141) fused at the N-terminus to GST: residues 19-141 of P43407
S2EDΔP124-F141 (S2ED lacking the adhesion regulatory domain), GST fusion: residues 19-123 of P43407

B1: protein tyrosine phosphatase receptor CD148 (receptor, UniProt Q64455 29-1238)
chain: RQGQVLCAGAAPNPIFDIEAVVSPTSVLLTWKHNDSGASECRIENKMESNLTFPVKNQTSCNITGLSPGTSYTFSIISVTTNETLNKTITTEPWPVSDLHVTSVGVTQARLTWSNANGTASYRMLIEELTTHSSVNISGLKPGTNNSFAFPESNETQADFAVAEEVPDANGTKRIPVTNLSQLHKNSLVSVDPPSGQDPSLTEILLTDLKPDTQYNATIYSQAANGTEGQPRNKVFKTNSTQVSDVRAMNISASSMTLTWKSNYDGSRTSIVYKIHVAGGTHSVNQTVNKTEAIILGLSSSTLYNITVHPFLGQTEGTPGFLQVYTSPDQVSDFRVTNVSTRAIGLAWRSNDSKSFEIFIKQDGGEKHRNASTGNQSYMVEDLKPGTSYHFEIIPRGPDGTEGLSSTVNGSTDPSAVTDIRVVNISTTEMQLEWQNTDDASGYTYHLVLESKSGSIIRTNSSQKWITVGSLTPGTLYNVTIFPEVDQIQGISNSITQYTRPSSVSHIEVNTTTTTAAIRWKNEDAASASYAYSVLILKTGDGSNVTSNFTKDPSILIPELIPGVSYTVKILTQVGDGTTSLVPGWNLFCTEPEPVTSFHCEVVPKEPALVLKWACPFGMYTGFELGVRSDSWDNMTRLENCTSDDDTECRTEVAYLNFSTSYNISIATLSCGKMALPAQNICTTGITDPPTPDGSPNITSVSHNSVKVKFSGFEASHGPIKAYAVILTTGEAAQPSADVLKYTYEDFKRGASDTYVTYLIRIEEKGQSQGLSEVLNYEIDVGNQSTTLGYYNGRLEPLGSYRACVAGFTNITYNLQNDGLINGDESYVSFSPYSEAVFLPQDPGVICGAVFGCIFGALAITAVGGFIFWRKKRTDAKNNEVSFSQIKPKKSKLIRVENFEAYFKKQQADSNCGFAEEYEDLKLIGISLPKYTAEIAENRGKNRYNNVLPYDISRVKLSVQTHSTDDYINANYMPGYHSKKDFIATQGPLPNTLKDFWRMVWEKNVYAIVMLTKCVEQGRTKCEEYWPSKQAQDYGDITVAMTSEVVLPEWTIRDFVVKNMQNSESHPLRQFHFTSWPDHGVPDTTDLLINFRYLVRDYMKQIPPESPILVHCSAGVGRTGTFIAIDRLIYQIENENTVDVYGIVYDLRMHRPLMVQTEDQYVFLNQCVLDIIRAQKDSKVDLIYQNTTAMTIYENLEPVSMFGKTNGYIA
In the case of B1, the binding [1] is reported as “binds”, the binding [2] is reported as “binds” and the binding [3] is reported as “no binding”.
